In PMC10779311, “Antileishmanial Activity, Toxicity and Mechanism of Action of Complexes of Sodium Usnate with Lanthanide Ions: Eu(III), Sm(III), Gd(III), Nd(III), La(III) and Tb(III)” (International Journal of Molecular Sciences, 2023):

Each compound was assayed on NIH/3T3 fibroblasts (assay: Cytotoxicity in mammalian cells (sulforhodamine B)). Details: IC50 in NIH/3T3 fibroblasts/IC50 on intracellular amastigotes.
Type: cell-based
Procedure: The cytotoxic effect of compounds 1–7 was evaluated on NIH/3T3 fibroblasts obtained from the Rio de Janeiro Cell Bank (Duque de Caxias, Brazil). Fibroblasts were seeded at […] in 96-well plates. After 24 h of fixation, cells were incubated for 48 h with 1–7 at 2.5–250 µg·mL^−1, in three replicates. Cell growth was evaluated using the sulforhodamine B colorimetric method, and the optical with absorbances read on the PT-READER microplate instrument (Spectramax 190, Molecular Devices, Sunnyvale, CA, USA) at 540 nm. […] The growth inhibition percentage-GI (%) of each test sample was calculated in Microsoft Office Excel 2007 software. IC50 was determined graphically in the Microcal Origin Version 6.00 program. The selectivity index (SI) was calculated as the ratio between the cytotoxicity on cells (IC50) and the activity on the parasite forms (IC50).
For `CC(=O)C1=C([O-])C=C2Oc3c(C(C)=O)c(O)c(C)c(O)c3C2(C)C1=O.CC(=O)C1=C([O-])C=C2Oc3c(C(C)=O)c(O)c(C)c(O)c3C2(C)C1=O.CC(=O)C1=C([O-])C=C2Oc3c(C(C)=O)c(O)c(C)c(O)c3C2(C)C1=O.O.O.O.[Eu+3]` (stereo not drawn) [EuL3·3H2O 4], the “SI (Ama.)” value was 6.73. In the case of `CC(=O)C1=C([O-])C=C2Oc3c(C(C)=O)c(O)c(C)c(O)c3C2(C)C1=O.CC(=O)C1=C([O-])C=C2Oc3c(C(C)=O)c(O)c(C)c(O)c3C2(C)C1=O.CC(=O)C1=C([O-])C=C2Oc3c(C(C)=O)c(O)c(C)c(O)c3C2(C)C1=O.O.O.O.[Gd+3]` (stereo not drawn) [GdL3·3H2O 3], the “SI (Ama.)” value is reported as 4.81. In the case of `CC(=O)C1=C([O-])C=C2Oc3c(C(C)=O)c(O)c(C)c(O)c3C2(C)C1=O.CC(=O)C1=C([O-])C=C2Oc3c(C(C)=O)c(O)c(C)c(O)c3C2(C)C1=O.CC(=O)C1=C([O-])C=C2Oc3c(C(C)=O)c(O)c(C)c(O)c3C2(C)C1=O.O.O.O.[La+3]` (stereo not drawn) [LaL3·3H2O 7], the “SI (Ama.)” value is reported as 2.38. With `CC(=O)C1=C([O-])C=C2Oc3c(C(C)=O)c(O)c(C)c(O)c3C2(C)C1=O.CC(=O)C1=C([O-])C=C2Oc3c(C(C)=O)c(O)c(C)c(O)c3C2(C)C1=O.CC(=O)C1=C([O-])C=C2Oc3c(C(C)=O)c(O)c(C)c(O)c3C2(C)C1=O.O.O.O.[Nd+3]` (stereo not drawn) [NdL3·3H2O 5] the “SI (Ama.)” value was 6.97. `CC(=O)C1=C([O-])C=C2Oc3c(C(C)=O)c(O)c(C)c(O)c3C2(C)C1=O.CC(=O)C1=C([O-])C=C2Oc3c(C(C)=O)c(O)c(C)c(O)c3C2(C)C1=O.CC(=O)C1=C([O-])C=C2Oc3c(C(C)=O)c(O)c(C)c(O)c3C2(C)C1=O.O.O.O.O.[Sm+3]` (stereo not drawn) [SmL3·4H2O 2] was tested, and the “SI (Ama.)” value was 3.82. In the case of `CC(=O)C1=C([O-])C=C2Oc3c(C(C)=O)c(O)c(C)c(O)c3C2(C)C1=O.CC(=O)C1=C([O-])C=C2Oc3c(C(C)=O)c(O)c(C)c(O)c3C2(C)C1=O.CC(=O)C1=C([O-])C=C2Oc3c(C(C)=O)c(O)c(C)c(O)c3C2(C)C1=O.O.O.[Tb+3]` (stereo not drawn) [TbL3·2H2O 6], the “SI (Ama.)” value is reported as 2.32.
